In this assay the target is StGPT1-GFP (potato (Solanum tuberosum)). Kind of assay: co-IP.

The values that follow come from publication PMC11540758.

Results are given in words; binding and its absence hold for the method and conditions named. Binding seen in cells or lysates may run through a third protein.

B1: Arabidopsis ATL1 (enzyme, UniProt P93823 1-381)
chain: MDLTDRRNPFNNLVFPPPPPPPSTTFTSPIFPRTSSSGTNFPILAIAVIGILATAFLLVSYYIFVIKCCLNWHQIDIFRRRRRSSDQNPLMIYSPHEVNRGLDESAIRAIPVFKFKKRDVVAGEEDQSKNSQECSVCLNEFQEDEKLRIIPNCCHVFHIDCIDIWLQGNANCPLCRTSVSCEASFTLDLISAPSSPRENSPHSRNRNLEPGLVLGGDDDFVVIELGASNGNNRESVRNIDFLTEQERVTSNEVSTGNSPKSVSPLPIKFGNRGMYKKERKFHKVTSMGDECIDTRGKDGHFGEIQPIRRSISMDSSVDRQLYLAVQEEISRRNRQIPVAGDGEDSSSSGGGNSRVMKRCFFSFGSSRTSKSSSILPVYLEP
Turning to B1, the binding entry is listed as “no binding”.
